About 5,900 (2.8%) of roughly 210,000 compounds were called active. Not shown: some 5% with an inconclusive outcome. Calls follow the shape of the dose curve; as a rule, active = well fitted activation curve with a large enough effect; inconclusive = small, poorly fitted or top-dose-only effect; inactive = no such curve, though single readings can be large or run the other way. The entries are a selection whose mix differs from that of the whole data set. The source gives no active or inactive call for entries shown without one.
Potency is read from the fitted curve at half-maximal effect.

The experiment in a line: qHTS Assay for Enhancers of SMN2 Splice Variant Expression. Also: nearly all actives have a fitted effect of over 55% in size. As to activity change, positive = activation: % of control where 0% means no effect. The settings on record: HEK293 SMN2-luciferase splicing reporter, luminescence, 30-36 h; activity change, positive = activation: at 46.1 µM (top of the series) unless noted. The method, boiled down:
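HEK293 cells carry an SMN2 […]–luciferase reporter in which exon 7 inclusion puts luciferase in frame. Cells were plated 10-12 h before compound addition, then incubated 30-36 h at 37C. ONE-Glo luminescence was read; sodium butyrate at 4.5 mM final served as control.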
(In general: Quantitative high-throughput screening tests each substance at several concentrations.)
In the case of `O=C(CNC(=O)c1ccc(-c2ccccc2)cc1)OCc1ccc(Br)cc1`, the Potency is active: 3.55 µM. With `Cc1[nH]c(=O)[nH]c(=O)c1S(=O)(=O)N1CCCC(C(=O)NCCC2=CCCCC2)C1` (stereo not drawn), the activity change, positive = activation was -33.8%.

Take `CC(=O)NCCOc1cccc2ccccc12`: the activity change, positive = activation turned out to be 40.8%. For the compound `CCOC(=O)c1cc(C(=O)Nc2cccc(C)c2)nn1C`, the Potency is active: 12.6 µM. Turning to `O=C(c1ccco1)N1CCN(C2=NS(=O)(=O)c3ccccc32)CC1`, the activity change, positive = activation is 34.2%. For `COc1ccc(S(=O)(=O)c2nnn(-c3ccc(C)c(Cl)c3)c2C)cc1`, the “activity change, positive = activation” value was inactive: -50.8%. As to `Cc1ccc(NC(=O)CCS(=O)(=O)c2cc(Br)cc3c2N(C(=O)C2CC2)CC3)cc1`, the activity change, positive = activation was 20.5%.

Take `CCOC(=O)c1c(Cc2ccccc2)c[nH]c1C`: the “activity change, positive = activation” value was inactive: -35%.

As for `COc1ccc2nc(SCc3ccccc3)nc(C)c2c1`, the Potency was active: 11.2 µM.

Regarding `Cc1ccc(-c2nc3ccccc3[nH]2)cc1NC(=O)c1sc2ccccc2c1Cl`, the “activity change, positive = activation” value was inactive: -58.7%.

Turning to `Cc1ccc(-c2c3c(=O)n(C)c(=O)n(C)c3cn2N2CCOCC2)cc1`, the activity change, positive = activation is 32.7%. Regarding `COc1ccc2cnn(CCOc3ccccc3)c(=O)c2c1OC`, the Potency is active: 11.2 µM. `COc1ccc(/C=C/C=C2\N=C(SC)SC2=O)cc1`: the activity change, positive = activation was 39.1%. Regarding `COC(=O)Cc1c(C)c2ccc(OCC(C)=O)c(C)c2oc1=O`, the Potency was active: 12.6 µM. As to `Cc1cccc(Nc2nc(-c3ccc4c(c3)OCCO4)cs2)c1`, the Potency is active: 11.2 µM. Regarding `O=C(O)C1CCCCC1C(=O)NCCc1ccc(Cl)cc1` (stereo not drawn), the activity change, positive = activation was found to be 25%. With `CC1(C)CC2CC(C)(CN2S(=O)(=O)c2ccc(C(=O)Nc3ccc(S(=O)(=O)N4CCOCC4)cc3)cc2)C1` (stereo not drawn), the activity change, positive = activation is -68.2%. In the case of `O=S(=O)(c1ccc(Oc2ccc(Br)cc2)cc1)N1CCOCC1`, the activity change, positive = activation is -70.2%.

Take `CCC(=O)n1nc(-c2ccc(OC)cc2)nc1NCc1cccs1`: the activity change, positive = activation is 32.3%. On to `Cc1cc(C)n(CCc2nc(-c3ccc(F)cc3)cs2)n1`, for which the activity change, positive = activation is -70.5%. Take `CCN1CCN(c2cc(C(C)(C)C)nc3c(-c4ccccc4)c(C)nn23)CC1`: the activity change, positive = activation was -41.5%. Regarding `CCOc1ccc(C)cc1S(=O)(=O)NC1CCCCC1`, the activity change, positive = activation stood at 49.8%.

With `COc1ccc(CCNC(=O)CC(c2ccccc2)c2cccc(C)c2O)cc1OC` (stereo not drawn), the activity change, positive = activation was -50.7%.

For `O=C(Cc1c(F)cccc1Cl)Nc1cccnc1`, the activity change, positive = activation was 76.9%. In the case of `COc1ccccc1-n1c(CNc2c(C)cccc2C)nnc1SCC(=O)N1CCOCC1`, the activity change, positive = activation is 22.3%. Consider `Cc1cc(-c2n[nH]c(=S)o2)c(C)n1-c1ccccc1`, for which the Potency is active: 7.08 µM. With `Cc1cc(=O)oc(C)c1C(=O)NCc1c(F)cc(F)cc1F`, the activity change, positive = activation turned out to be 162%. On to `O=C(NC1=NCCS1)c1ccc(OCC2CCCO2)cc1` (stereo not drawn), for which the Potency is active: 10 µM. `CN(C)c1ccc(/C=C(\C#N)c2ccccn2)cc1`: the activity change, positive = activation was -54%. In the case of `CCc1c(O)nc(N2CCN(Cc3ccccc3)CC2)[nH]c1=O`, the activity change, positive = activation worked out at 20.8%.

Regarding `CC(C)c1cc(C(N)=O)c(NC(=O)c2cccc(COc3ccc(Br)cc3)c2)s1`, the activity change, positive = activation is 460%. For `CCOC(=O)c1c(NC(=O)COc2ncnc3ccccc23)sc(C)c1CC`, the activity change, positive = activation was -40.3%.

Consider `Cc1ccc(N=Cc2nc(-c3ccc(C)cc3)oc2O)cc1`, for which the activity change, positive = activation was -16.5%. Consider `COc1cc(C(=S)N2CCCC2)ccc1OS(=O)(=O)c1ccc(NC(C)=O)cc1`, for which the “activity change, positive = activation” value is inactive: -68.4%. Still for that read-out and setting: the value for `COc1cc(C2CC(=O)N(CC(=O)Nc3ccccc3F)c3ccccc3S2)cc(OC)c1OC` (stereo not drawn) was inactive: -34.2%; that for `O=C(Nc1cc(Sc2ccccn2)cc([N+](=O)[O-])c1)c1cccc(Cl)c1` was -92.2%; that for `O=C(c1cc2ccccc2oc1=O)N(Cc1ccco1)CC1CCCO1` (stereo not drawn) was 58.3%. For the compound `CN(C)S(=O)(=O)N1CCN(CC(O)COc2ccc(C(=O)c3ccccc3)cc2)CC1` (stereo not drawn), the activity change, positive = activation was -65.5%. Regarding `COc1ccc2cc3c(N)nn(C(=O)c4ccc(F)cc4Cl)c3nc2c1`, the “activity change, positive = activation” value was inactive: -44.3%. For the compound `CCOC(=O)C1CCN(C(=O)c2ccc3c(SCC(=O)O)c4c(nc3c2)CCCC4)CC1`, the activity change, positive = activation is -21.5%. In the case of `CN(C)S(=O)(=O)N(CC(=O)NCc1ccccc1)c1ccccc1`, the activity change, positive = activation came out at 26.3%. Take `Cc1csc(NC(=O)C2CCN(S(=O)(=O)c3ccccc3F)CC2)n1`: the “activity change, positive = activation” value was inactive: -49%. `CCC/C(=N\NC(=O)c1csc(C)c1C)c1cccs1`: the Potency was active: 15.8 µM. Same read-out and setting: the value for `O=C(NCC1CCCO1)c1cc(-c2ccccc2)on1` (stereo not drawn) was active: 35.5 µM. Regarding `CC(C)NS(=O)(=O)c1ccc(NC(=O)CCc2ccccc2)cc1`, the activity change, positive = activation is 30.5%. For the compound `CCOC(=O)NC(Nc1ccc(S(N)(=O)=O)cc1)(C(=O)OCC)C(F)(F)F` (stereo not drawn), the activity change, positive = activation was determined as 49.5%. As to `COC(=O)c1cc(COc2ccc3ccc(=O)oc3c2)c(C)o1`, the activity change, positive = activation turned out to be 37.1%.

Consider `Cc1ccccc1N=Nc1ccc(O)c2ncccc12`, for which the “activity change, positive = activation” value was inactive: -103%. Regarding `O=C(Nc1ccc(NC(=O)C2CCCCC2)nc1)c1ccccn1`, the Potency was active: 22.4 µM. `CC(=O)C1=C(O)C(=O)N(CCCCCC(=O)O)C1c1ccc(N(C)C)cc1` (stereo not drawn): the activity change, positive = activation worked out at 20.9%.

Take `CCCCN(C)CC(O)Cn1cc(/C=C/C(=O)c2ccc(OCC)cc2)c2ccccc21` (stereo not drawn): the “activity change, positive = activation” value was inactive: -82.5%.

For the compound `CCOC(=O)n1c(=O)n(Cc2ccc(Cl)cc2Cl)c2ccccc21`, the “activity change, positive = activation” value is inactive: -33.3%. As to `O=C(N/N=C/c1ccc(Cl)cc1)C1CC12CCC2` (stereo not drawn), the activity change, positive = activation amounted to 50.4%.

Values taken from PubChem BioAssay AID1458 (National Center for Advancing Translational Sciences (NCATS), 2008).
